{"sequences": {"note": "By UniProt entry, the sequences of proteins in these tests, tags left out. Where a name states a change or a piece, a line headed by the entry shows the natural chain unless it says otherwise. Chains listed by the source or under a name are the forms on record and can include a tag or linker.", "RUNX3-FLAG (human RUNX3 in pcDNA3.1) (Q13761, form named)": "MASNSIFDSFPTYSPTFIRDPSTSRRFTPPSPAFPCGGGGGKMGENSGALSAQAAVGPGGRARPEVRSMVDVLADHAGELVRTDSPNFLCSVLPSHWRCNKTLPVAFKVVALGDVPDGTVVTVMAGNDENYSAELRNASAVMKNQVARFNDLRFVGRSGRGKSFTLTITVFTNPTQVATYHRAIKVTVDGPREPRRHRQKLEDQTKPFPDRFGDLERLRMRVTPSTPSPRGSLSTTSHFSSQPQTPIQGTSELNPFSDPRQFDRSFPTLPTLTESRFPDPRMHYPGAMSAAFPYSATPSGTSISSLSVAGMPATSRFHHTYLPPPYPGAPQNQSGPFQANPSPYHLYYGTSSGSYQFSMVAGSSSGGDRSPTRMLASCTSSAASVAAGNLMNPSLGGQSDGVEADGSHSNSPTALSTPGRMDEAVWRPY", "UniProt P23771": "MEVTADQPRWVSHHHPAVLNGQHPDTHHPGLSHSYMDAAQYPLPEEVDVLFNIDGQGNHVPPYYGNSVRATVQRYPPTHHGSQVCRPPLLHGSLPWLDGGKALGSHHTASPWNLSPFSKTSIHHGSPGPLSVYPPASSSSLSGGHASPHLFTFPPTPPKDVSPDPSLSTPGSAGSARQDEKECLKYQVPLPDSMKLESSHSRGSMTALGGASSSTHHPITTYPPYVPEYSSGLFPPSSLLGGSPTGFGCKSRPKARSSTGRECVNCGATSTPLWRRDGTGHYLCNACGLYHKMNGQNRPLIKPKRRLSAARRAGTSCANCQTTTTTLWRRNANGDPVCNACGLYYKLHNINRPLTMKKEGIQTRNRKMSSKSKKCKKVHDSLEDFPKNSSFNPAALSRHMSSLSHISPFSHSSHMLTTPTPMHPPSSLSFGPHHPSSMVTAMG"}, "source": "paper PMC9309057", "molecular_target": "RUNX3-FLAG (human RUNX3 in pcDNA3.1) (human) (UniProt Q13761)", "experiment": "co-IP; HEK293T cells cotransfected with pcDNA3.1-RUNX3-FLAG and pcDNA3.1-GATA3-HA, lysed after 48 hours; lysates incubated with mouse anti-FLAG magnetic beads overnight in cold room; washed with PBST (0.1% Triton X-100); Western blot", "note": "These are yes or no findings as the source states them, for the method shown. In cells and extracts the contact can be indirect. Some binding calls cover weakened binding; strength is not graded here."}
{"substance": "GATA3-HA (human GATA3 in pcDNA3.1) (from UniProt P23771 1-443)", "values": [{"measurement": "binding", "value": "binds weakly"}]}
